Source: PMC10201669, “A novel coumarin derivative DBH2 inhibits proliferation and induces apoptosis of chronic myeloid leukemia cells” (Genes & Diseases, 2022)
≈ marks a conversion by molar mass, not a printed value.

Experiments:
Type in all cases: cell-based
[1] = test system: CD34+ hematopoietic stem and progenitor cells (HSPCs); test: CCK-8 cell viability assay (cytotoxicity), HSPCs; conditions: Homo sapiens; CCK-8, 48 h
Excerpt: Human CD34^+ HSCPs were obtained from the specimens of consenting healthy donors or CML patients at Xijing Hospital, and purified using Human Whole Blood CD34 Positive Selection Kit II (StemCell Technologies, China). Briefly, the human bone marrow was homogenized, and the top layering with Ficoll-Paque (GE Healthcare, USA) interphase containing immune cells and CD34^+ HSPCs was collected and washed with PBS, then CD34^+ HSPCs were purified according to the protocol of EasySep human CD34 positive selection kit (StemCell Technologies, China). CD34^+ cells were cultured in StemSpan-ACF medium II supplemented with 50 ng/mL human stem cell factor, 10 ng/mL thrombopoietin, 20 ng/mL FMS-related tyrosine kinase 3 ligand, 20 ng/mL interleukin-6 and 1% penicillin-streptomycin solution.
(§1) Cell viability was examined using the cell counting kit-8 (CCK-8) assay (YEASEN China). In brief, cells (1 × 10^4 cells/well) in confluent 96-well cell culture plates were treated with different concentrations of coumarin derivative (1, 5, 10, 25, 50, 100, 200, and 400 μg/mL) for 48 h. Then 10 μL CCK-8 reagents were added into every well for 2 h of incubation. Optical density (OD) was detected using the microplate reader (BioTek, Germany). The values were then fit into a non-linear regression curve and the IC50 was calculated using GraphPad Prism.

K562R cells = test: CCK-8 cell viability assay, drug resistant K562 cells; conditions: Homo sapiens, K-562R; CCK-8, 48 h
Experimental: (§2) Human CML cell line K562 cells and human umbilical vein endothelial cells (HUVECs) were purchased from ATCC (Manassas, USA). Drug resistant K562 (K562R) cells were provided by the Chinese Academy of Medical Science Hematology Institute. The cells were cultured in RPMI-1640 medium containing 10% fetal bovine serum (FBS) in cell culture flasks under a humidified 5% CO2 and 95% air atmosphere at 37 °C. Bone marrow (BM) cells from mice or patients were cultured in DMEM/F12 medium supplemented with 20% FBS.
as §1

K562 cells = test: CCK-8 cell viability assay, K562 cells; conditions: Homo sapiens, CCK-8, 48 h
Experimental: as §2, §1

HUVECs = test: CCK-8 cell viability assay (cytotoxicity), HUVECs; conditions: Homo sapiens, HUVEC; CCK-8, 48 h
Experimental: as §2, §1

IC50 (K562R cells): 4.86 µg/mL (≈ 9.85 µM)
IC50 (K562 cells): 0.15 µg/mL (≈ 0.304 µM)
Compound: Cc1ccc(NC(=O)c2ccc(CN3CCN(C)CC3)cc2)cc1Nc1nccc(-c2cccnc2)n1 [Imatinib, imatinib, reference compound]
IC50 [1]: 11.3 µg/mL (≈ 23 µM)
IC50 (HUVECs): 12.4 µg/mL (≈ 25.1 µM)
